Assay results: PMC12613110, “Anti-Trypanosoma cruzi Effects of Sesquiterpenoids from Branches of Drimys brasiliensis (Winteraceae)” (ACS Omega, 2025)
Where “and” joins values, the source holds several entries; their conditions need not be identical. Equal values may be shown once.

Tests used:
[1] = tested on: T. cruzi trypomastigotes (Y strain); test: Anti-T. cruzi activity against trypomastigote forms (resazurin reduction assay, 24 h); format: cell-based, Trypanosoma cruzi; settings: Selectivity Index, NCTC CC50 vs trypomastigote EC50
Method: (§1) The trypomastigote forms of T. cruzi (Y strain) were maintained in culture using Rhesus monkey kidney cells (LLC-MK2, ATCC CCL-7). These cells were cultured in RPMI-1640 medium supplemented with 2% fetal bovine serum (FBS) and incubated at 37 °C in a humidified atmosphere containing 5% CO2. Mouse fibroblast cells (NCTC clone L929, ATCC) and LLC-MK2 cells were similarly maintained in RPMI-1640 medium supplemented with 10% FBS under identical incubation conditions (37 °C, 5% CO2). Peritoneal macrophages were isolated from BALB/c mice by peritoneal lavage using RPMI-1640 medium supplemented with 10% FBS, followed by incubation at 37 °C in a 5% CO2 humidified atmosphere. In addition, the human monocytic cell line THP-1 (ATCC TIB-202) was cultured in RPMI-1640 medium supplemented with 20% FBS and […] glutamine, and maintained at 37 °C in a humidified 5% CO2 environment.
Compounds 1–6 were initially dissolved in DMSO and subsequently diluted in RPMI-1640 medium to the desired concentrations before being dispensed into 96-well microplates. T. cruzi trypomastigotes were then added at a density of 1 × 10^6 parasites per well. The plates were incubated for 24 h at 37 °C in a humidified atmosphere containing 5% CO2. […] Absorbance readings were acquired at 570 nm using a microplate spectrophotometer (FilterMax F5). […]

[2] = tested on: intracellular amastigote forms of T. cruzi; test: Activity against intracellular amastigote forms of T. cruzi in infected peritoneal macrophages (48 h); format: cell-based, Trypanosoma cruzi; settings: Selectivity Index, NCTC CC50 vs amastigote EC50
Method: as §1
The antiparasitic activity of compounds 1–6 against the intracellular amastigote forms of T. cruzi was assessed using an in vitro infection model with peritoneal macrophages. Macrophages were seeded in 16-well plates at a density of 1 × 10^5 cells per well and incubated at 37 °C in a humidified atmosphere containing 5% CO2 for 24 h to promote adherence. Cells were then infected with trypomastigotes for 2 h under the same conditions to allow parasite internalization. […]

For C=C1[C@@H](C)CC[C@]2(C)[C@@H](C=O)C(C=O)=CC[C@@H]12 [Compound 6, 9-deoxymuzigadial], the SI trypomastigote [1] was over 34.0 and the SI amastigote [2] was 64.3 and >64.3.
